These are yes or no findings as the source states them, for the method shown.
Target: RelA subunit of NF-κB (UniProt Q04206)
Experiment: fluorescence polarisation + SEC + native gel or EMSA; recombinant biochemical techniques; conditions not given; both purified

Chains of the proteins cited; added tags and fusions are not shown.
UniProt Q04206: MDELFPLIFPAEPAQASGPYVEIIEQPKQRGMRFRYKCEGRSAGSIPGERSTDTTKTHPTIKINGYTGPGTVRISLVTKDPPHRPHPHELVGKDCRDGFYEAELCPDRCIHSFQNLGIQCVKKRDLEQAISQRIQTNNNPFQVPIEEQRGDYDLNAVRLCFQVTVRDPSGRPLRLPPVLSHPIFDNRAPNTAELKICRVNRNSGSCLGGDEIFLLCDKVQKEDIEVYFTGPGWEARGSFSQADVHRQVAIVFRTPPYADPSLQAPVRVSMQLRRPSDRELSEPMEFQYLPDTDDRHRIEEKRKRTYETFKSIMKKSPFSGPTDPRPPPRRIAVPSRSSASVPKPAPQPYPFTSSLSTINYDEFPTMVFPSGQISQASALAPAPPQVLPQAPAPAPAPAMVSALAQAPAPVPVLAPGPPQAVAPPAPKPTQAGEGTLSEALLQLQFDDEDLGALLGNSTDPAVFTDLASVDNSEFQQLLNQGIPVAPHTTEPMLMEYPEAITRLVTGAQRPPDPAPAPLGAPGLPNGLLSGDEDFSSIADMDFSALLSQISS

B1: Pirin (protein, UniProt O00625 1-290)
chain: MGSSKKVTLSVLSREQSEGVGARVRRSIGRPELKNLDPFLLFDEFKGGRPGGFPDHPHRGFETVSYLLEGGSMAHEDFCGHTGKMNPGDLQWMTAGRGILHAEMPCSEEPAHGLQLWVNLRSSEKMVEPQYQELKSEEIPKPSKDGVTVAVISGEALGIKSKVYTRTPTLYLDFKLDPGAKHSQPIPKGWTSFIYTISGDVYIGPDDAQQKIEPHHTAVLGEGDSVQVENKDPKRSHFVLIAGEPLREPVIQHGPFVMNTNEEISQAILDFRNAKNGFERAKTWKSKIGN
- binding: no binding
